Some of the results follow.
What was measured:
Test in all cases: glycan array binding signal (z-score within array); higher = stronger binding
Settings in all cases: glycan notation: IUPAC condensed, linker removed
[1] = molecular target: Gal(b1-4)GlcNAc(b1-2)Man(a1-6)[GlcNAc(b1-2)Man(a1-3)]Man(b1-4)GlcNAc(b1-4)GlcNAc
Summary of the method: (§1)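 From the Consortium for Functional Glycomics database, 3228 arrays were curated, keeping only those whose protein sequence was available. Binding is given as a within-array Z-score averaged across arrays sharing a protein sequence and across linkers. Negative Z-scores can be read as non-binding.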

[2] = molecular target: Gal(b1-4)GlcNAc(b1-2)Man(a1-6)[Man(a1-3)]Man(b1-4)GlcNAc(b1-4)GlcNAc
Summary of the method: as §1

[3] = molecular target: Gal(b1-4)GlcNAc(b1-2)[Gal(b1-4)GlcNAc(b1-4)]Man(a1-3)[Gal(b1-4)GlcNAc(b1-2)Man(a1-6)]Man(b1-4)GlcNAc(b1-4)GlcNAc
Summary of the method: as §1

[4] = molecular target: Gal(b1-4)GlcNAc(b1-2)[Gal(b1-4)GlcNAc(b1-4)]Man(a1-3)[Gal(b1-4)GlcNAc(b1-2)[Gal(b1-4)GlcNAc(b1-6)]Man(a1-6)]Man(b1-4)GlcNAc(b1-4)GlcNAc
Summary of the method: as §1

[5] = molecular target: Gal(b1-4)GlcNAc(b1-2)[Gal(b1-4)GlcNAc(b1-4)]Man(a1-3)[GlcNAc(b1-4)][Gal(b1-4)GlcNAc(b1-2)Man(a1-6)]Man(b1-4)GlcNAc(b1-4)GlcNAc
Summary of the method: as §1

[6] = molecular target: Gal(b1-4)GlcNAc(b1-2)[Gal(b1-4)GlcNAc(b1-4)]Man(a1-3)[GlcNAc(b1-4)][Gal(b1-4)GlcNAc(b1-2)[Gal(b1-4)GlcNAc(b1-6)]Man(a1-6)]Man(b1-4)GlcNAc(b1-4)GlcNAc
Summary of the method: as §1

[7] = molecular target: Gal(b1-4)GlcNAc(b1-2)[Gal(b1-4)GlcNAc(b1-6)]Man(a1-6)[Gal(b1-4)GlcNAc(b1-2)Man(a1-3)]Man(b1-4)GlcNAc(b1-4)GlcNAc
Summary of the method: as §1

[8] = molecular target: Gal(b1-4)GlcNAc(b1-2)[Gal(b1-4)GlcNAc(b1-6)]Man(a1-6)[Gal(b1-4)GlcNAc(b1-2)Man(a1-3)]Man(b1-4)GlcNAc(b1-4)[Fuc(a1-6)]GlcNAc
Summary of the method: as §1

[9] = molecular target: Gal(b1-4)GlcNAc(b1-2)[Gal(b1-4)GlcNAc(b1-6)]Man(a1-6)[GlcNAc(b1-4)][Gal(b1-4)GlcNAc(b1-2)Man(a1-3)]Man(b1-4)GlcNAc(b1-4)GlcNAc
Summary of the method: as §1

[10] = molecular target: Gal(b1-4)GlcNAc(b1-2)[Gal(b1-4)GlcNAc(b1-6)]Man(a1-6)[GlcNAc(b1-4)][Gal(b1-4)GlcNAc(b1-2)[Gal(b1-4)GlcNAc(b1-4)]Man(a1-3)]Man(b1-4)GlcNAc(b1-4)[Fuc(a1-6)]GlcNAc
Summary of the method: as §1

[11] = molecular target: Gal(b1-4)GlcNAc(b1-3)Gal(b1-3)GalNAc
Summary of the method: as §1

[12] = molecular target: Gal(b1-4)GlcNAc(b1-3)Gal(b1-3)GlcNAc
Summary of the method: as §1

[13] = molecular target: Gal(b1-4)GlcNAc(b1-3)Gal(b1-4)Glc
Summary of the method: as §1

[14] = molecular target: Gal(b1-4)GlcNAc(b1-3)Gal(b1-4)GlcNAc
Summary of the method: as §1

[15] = molecular target: Gal(b1-4)GlcNAc(b1-3)Gal(b1-4)GlcNAc(b1-2)Man(a1-3)[Gal(b1-4)GlcNAc(b1-3)Gal(b1-4)GlcNAc(b1-2)Man(a1-6)]Man(b1-4)GlcNAc(b1-4)GlcNAc
Summary of the method: as §1

[16] = molecular target: Gal(b1-4)GlcNAc(b1-3)Gal(b1-4)GlcNAc(b1-2)Man(a1-3)[Gal(b1-4)GlcNAc(b1-3)Gal(b1-4)GlcNAc(b1-2)Man(a1-6)]Man(b1-4)GlcNAc(b1-4)[Fuc(a1-6)]GlcNAc
Summary of the method: as §1

[17] = molecular target: Gal(b1-4)GlcNAc(b1-3)Gal(b1-4)GlcNAc(b1-2)[Gal(b1-4)GlcNAc(b1-3)Gal(b1-4)GlcNAc(b1-6)]Man(a1-6)[Gal(b1-4)GlcNAc(b1-3)Gal(b1-4)GlcNAc(b1-2)Man(a1-3)]Man(b1-4)GlcNAc(b1-4)GlcNAc
Summary of the method: as §1

[18] = molecular target: Gal(b1-4)GlcNAc(b1-3)Gal(b1-4)GlcNAc(b1-2)[Gal(b1-4)GlcNAc(b1-3)Gal(b1-4)GlcNAc(b1-6)]Man(a1-6)[Gal(b1-4)GlcNAc(b1-3)Gal(b1-4)GlcNAc(b1-2)Man(a1-3)]Man(b1-4)GlcNAc(b1-4)[Fuc(a1-6)]GlcNAc
Summary of the method: as §1

B1: Erv41-EDTA (Saccharomyces cerevisiae), Q04651 (protein)
chain: MKFLVNVALVFMVVYISYIYAAAPEHHHHHHDYDIPTTENLYFQGAMGYIDQQYVVDSQVRDTVQINMDIYVNTKCDWLQINVRDQTMDRKLVLEELQLEEMPFFIPYDTKVNDINEIITPELDEILGEAIPAEFREKLDTRSFFDESDPNKAHLPEFNGCHVFGSIPVNRVSGELQITAKSLGYVASRKAPLEELKFNHVINEFSFGDFYPYIDNPLDNTAQFNQDEPLTTYVYYTSVVPTLFKKLGAEVDTNQYSVNDYRYLYKDVAAKGDKMPGIFFKYNFEPLSIVVSDVRL
- glycan array binding signal (z-score) [1]: -0.581
- glycan array binding signal (z-score) [2]: -0.568
- glycan array binding signal (z-score) [3]: -0.294
- glycan array binding signal (z-score) [4]: -1.49
- glycan array binding signal (z-score) [5]: -0.565
- glycan array binding signal (z-score) [6]: -1.56
- glycan array binding signal (z-score) [7]: 0.313
- glycan array binding signal (z-score) [8]: 1.8
- glycan array binding signal (z-score) [9]: 0.543
- glycan array binding signal (z-score) [10]: 0.231
- glycan array binding signal (z-score) [11]: -0.758
- glycan array binding signal (z-score) [12]: -0.245
- glycan array binding signal (z-score) [13]: -0.262
- glycan array binding signal (z-score) [14]: -0.833
- glycan array binding signal (z-score) [15]: 1.39
- glycan array binding signal (z-score) [16]: -0.228
- glycan array binding signal (z-score) [17]: 1.33
- glycan array binding signal (z-score) [18]: 0.622
